At least one structure is not confirmed: it was looked up by name or label, or the drawing left a doubt.
Assay: hydrolysis of the compound into its active (indol-4-ol / indol-5-ol), compound dissolved in water

CN(C)CCc1c[nH]c2cccc(OP(=O)(O)O)c12 [Psilocybin]
kobs (s^−1) × 10^−6: <1 s^−1 × 10^−6 | Hydrolysis rate (unit not given): 0.03

— patent US12343328B2, “Dialkyl tryptamines and their therapeutic uses” (CAAMTECH, INC., priority 2020, dated 2025)
